PubChem BioAssay AID1259405 – NCATS, 2018
Here is one part, drawn at random, of about 50,000 deposited reagents. About 4,000 of all reagents (8%) count as active. 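Mouse siRNA library applied to hamster cells; one well for each siRNA.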 A number with no mark means an inactive call. The numbers tell different reagents against one gene apart.

Screen: 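Silenced genes that increase secreted GFP made by CHO cells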 (primary screen)
Cells: Chinese hamster CHO-K1 ovary cells with stable secreted eGFP expression
Reagents: single siRNA against mouse genes, 0.8 pmol siRNA per well (2 µl of 400 nM stock)
Duration: 3 days
Read-out: 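Percent of the per-plate non-targeting control median for intracellular GFP per well by laser scanning cytometry and for cell viability by ATP luminescence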
Reading the numbers: GFP, % of control: higher = more GFP per well, higher productivity; viability (ATP), % of control: higher = more viable cells (more ATP)
Rule for the call: 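a knock-down is called active if GFP reaches 120% or more of non-targeting control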

Or9g10 (olfactory receptor family 9 subfamily G member 10) #1
- GFP, % of control: 83.5
- viability (ATP), % of control: 83.7

Or9g10 (olfactory receptor family 9 subfamily G member 10) #2
- GFP, % of control: 51.1
- viability (ATP), % of control: 75.7

Or9g10 (olfactory receptor family 9 subfamily G member 10) #3
- GFP, % of control: 84.3
- viability (ATP), % of control: 76.2

Slc60a2c #1
- GFP, % of control: 64.6
- viability (ATP), % of control: 53.3

Slc60a2c #2
- GFP, % of control: 78
- viability (ATP), % of control: 97

Slc60a2c #3
- GFP, % of control: 143 (active)
- viability (ATP), % of control: 162

Sdhaf2 (succinate dehydrogenase complex assembly factor 2) #1
- GFP, % of control: 96.4
- viability (ATP), % of control: 95.4

Sdhaf2 (succinate dehydrogenase complex assembly factor 2) #2
- GFP, % of control: 51.9
- viability (ATP), % of control: 39.7

Sdhaf2 (succinate dehydrogenase complex assembly factor 2) #3
- GFP, % of control: 102
- viability (ATP), % of control: 63.6

Zfp217 (zinc finger protein 217) #1
- GFP, % of control: 87.6
- viability (ATP), % of control: 110

Zfp217 (zinc finger protein 217) #2
- GFP, % of control: 66.2
- viability (ATP), % of control: 71.5

Zfp217 (zinc finger protein 217) #3
- GFP, % of control: 74.3
- viability (ATP), % of control: 95

Syt16 (synaptotagmin XVI) #1
- GFP, % of control: 114
- viability (ATP), % of control: 80

Syt16 (synaptotagmin XVI) #2
- GFP, % of control: 73.5
- viability (ATP), % of control: 76.1

Syt16 (synaptotagmin XVI) #3
- GFP, % of control: 65.5
- viability (ATP), % of control: 65.9

Spata6l (spermatogenesis associated 6 like) #1
- GFP, % of control: 36.1
- viability (ATP), % of control: 35.8

Spata6l (spermatogenesis associated 6 like) #2
- GFP, % of control: 96.7
- viability (ATP), % of control: 87.2

Spata6l (spermatogenesis associated 6 like) #3
- GFP, % of control: 88
- viability (ATP), % of control: 106

Mst1 (macrophage stimulating 1 (hepatocyte growth factor-like)) #1
- GFP, % of control: 44.4
- viability (ATP), % of control: 68.8

Mst1 (macrophage stimulating 1 (hepatocyte growth factor-like)) #2
- GFP, % of control: 78.2
- viability (ATP), % of control: 72

Mst1 (macrophage stimulating 1 (hepatocyte growth factor-like)) #3
- GFP, % of control: 54.5
- viability (ATP), % of control: 58.4

Gpr35 (G protein-coupled receptor 35) #1
- GFP, % of control: 75.1
- viability (ATP), % of control: 75.3

Gpr35 (G protein-coupled receptor 35) #2
- GFP, % of control: 49
- viability (ATP), % of control: 49.7

Gpr35 (G protein-coupled receptor 35) #3
- GFP, % of control: 92.5
- viability (ATP), % of control: 69.6

Scyl1 (SCY1-like 1 (S. cerevisiae)) #1
- GFP, % of control: 104
- viability (ATP), % of control: 129

Scyl1 (SCY1-like 1 (S. cerevisiae)) #2
- GFP, % of control: 112
- viability (ATP), % of control: 73.4

Sltm (SAFB-like, transcription modulator) #1
- GFP, % of control: 48
- viability (ATP), % of control: 38.9

Sltm (SAFB-like, transcription modulator) #2
- GFP, % of control: 70.6
- viability (ATP), % of control: 59.2

Sltm (SAFB-like, transcription modulator) #3
- GFP, % of control: 90.3
- viability (ATP), % of control: 89.1

Rerg (RAS-like, estrogen-regulated, growth-inhibitor) #1
- GFP, % of control: 156 (active)
- viability (ATP), % of control: 88.6

Rerg (RAS-like, estrogen-regulated, growth-inhibitor) #2
- GFP, % of control: 125 (active)
- viability (ATP), % of control: 76.4

Rerg (RAS-like, estrogen-regulated, growth-inhibitor) #3
- GFP, % of control: 98.1
- viability (ATP), % of control: 94.9

Clic6 (chloride intracellular channel 6) #1
- GFP, % of control: 64.2
- viability (ATP), % of control: 100

Clic6 (chloride intracellular channel 6) #2
- GFP, % of control: 65.7
- viability (ATP), % of control: 69.8

Clic6 (chloride intracellular channel 6) #3
- GFP, % of control: 42.4
- viability (ATP), % of control: 36.7

Pcdh8 (protocadherin 8) #1
- GFP, % of control: 52.7
- viability (ATP), % of control: 67

Pcdh8 (protocadherin 8) #2
- GFP, % of control: 61.7
- viability (ATP), % of control: 60.6

Il17re (interleukin 17 receptor E) #1
- GFP, % of control: 94
- viability (ATP), % of control: 96.1

Il17re (interleukin 17 receptor E) #2
- GFP, % of control: 50
- viability (ATP), % of control: 43.2

Il17re (interleukin 17 receptor E) #3
- GFP, % of control: 103
- viability (ATP), % of control: 87.1

A portion from the list above, for reference:
Slc60a2c #3
- GFP, % of control: 143 (active)
- viability (ATP), % of control: 162

Sdhaf2 (succinate dehydrogenase complex assembly factor 2) #1
- GFP, % of control: 96.4
- viability (ATP), % of control: 95.4

Sdhaf2 (succinate dehydrogenase complex assembly factor 2) #2
- GFP, % of control: 51.9
- viability (ATP), % of control: 39.7

Sdhaf2 (succinate dehydrogenase complex assembly factor 2) #3
- GFP, % of control: 102
- viability (ATP), % of control: 63.6

Zfp217 (zinc finger protein 217) #1
- GFP, % of control: 87.6
- viability (ATP), % of control: 110
